Data as given in PubChem BioAssay AID504791 (Drosophila RNAi Screening Center, 2011)

- Aim: 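Genes of the fly required for silencing by miRNA, siRNA or endo-siRNA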 (primary screen)
- System: Drosophila S2-derived reporter cells
- Reagent: long dsRNA against Drosophila genes, about 150-250 ng dsRNA per well (siRNA assay); about 80-120 ng (miRNA assay)
- Duration: about 5 days (siRNA assay); about 4 days (miRNA assay)
- Challenge: copper sulfate induction of reporters: 25 µM (siRNA assay); 200 mM stated (miRNA assay), 1-2 days before reading
- Measured: 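Per-well ratio of Renilla over firefly light, expressed relative to that plate's average ratio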
- Hit rule: 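a well was a first-pass pick when its plate-scaled ratio rose above 1.5 (siRNA assay) or 1.6 (miRNA assay), or dropped below 0.6; a gene counted only if two separate dsRNAs agreed on retest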
In all, the deposit lists about 23,000 reagents; this is an unselected part of those that have a named target and a result. Of all reagents, 199 (0.86%) got an active call. 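Plate-scaled ratios behind the calls are not deposited; printed light signals are raw; many rows marked increased or decreased are still called inactive.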 A plus sign joins genes that one reagent is predicted to hit. No sequences are given here. The record does not give: the direction of the score.

| gene | dsRNA | stable siRNA reporter change | stable assay Renilla, run 1 (luminescence) | stable assay firefly, run 1 (luminescence) | Call |
| --- | --- | --- | --- | --- | --- |
| CG5767 | DRSC06953 | – | 5583 | 3.19e5 | inactive |
| Slip1 | DRSC17146 | – | 7231 | 3.69e5 | inactive |
| Nuak | DRSC14414 | – | 6704 | 4.28e5 | inactive |
| Nuak | DRSC14415 | – | 7300 | 2.77e5 | inactive |
| Nuak | DRSC14416 | – | 6740 | 4.80e5 | inactive |
| AdamTS-B | DRSC18346 | – | 5351 | 3.42e5 | inactive |
| Iml1 | DRSC08249 | – | 12556 | 3.89e5 | inactive |
| cv-2 | DRSC03861 | – | 5427 | 3.17e5 | inactive |
| cv-2 | DRSC04261 | – | 6519 | 3.70e5 | inactive |
| Flo1 | DRSC07427 | – | 10234 | 4.55e5 | inactive |
| CG18539 | DRSC06766 | – | 6982 | 3.80e5 | inactive |
| pug | DRSC17036 | – | 5747 | 3.65e5 | inactive |
| jef | DRSC06198 | – | 6910 | 4.16e5 | inactive |
| mof | DRSC18795 | – | 5727 | 2.63e5 | inactive |
| Gpdh1 | DRSC03336 | – | 1.07e5 | 1.83e5 | inactive |
| Gpdh1 | DRSC21666 | – | 10113 | 5.93e5 | inactive |
| RpL10Aa | DRSC15518 | – | 7902 | 3.59e5 | inactive |
| IFT20 + CG10395 | DRSC22660 | – | 5463 | 5.03e5 | inactive |
| CG3706 | DRSC18649 | – | 8310 | 6.48e5 | inactive |
| CG14187 | DRSC10186 | – | 6610 | 4.13e5 | inactive |
| Atg1 | DRSC09809 | – | 7284 | 4.35e5 | inactive |
| Atg1 | DRSC09810 | – | 6551 | 4.43e5 | inactive |
| salr | DRSC03607 | – | 6751 | 3.44e5 | inactive |
| CG15631 | DRSC00466 | – | 8043 | 4.39e5 | inactive |
| CG11162 | DRSC19391 | – | 5564 | 5.74e5 | inactive |
| CG11162 | DRSC22538 | – | 4348 | 3.28e5 | inactive |
| Ir94c | DRSC13539 | – | 4907 | 4.61e5 | inactive |
| CG8677 + CG31626 | DRSC01838 | – | 5883 | 5.29e5 | inactive |
| CG13197 | DRSC06322 | – | 6046 | 3.81e5 | inactive |
| CG43902 | DRSC17999 | – | 5704 | 3.97e5 | inactive |
| exu | DRSC07615 | – | 9382 | 3.36e5 | inactive |
| CG10516 | DRSC09738 | – | 6642 | 3.03e5 | inactive |
| Dhdds | DRSC17756 | – | 6438 | 3.47e5 | inactive |

Continued (5 carried over from the part before).
| gene | dsRNA | stable siRNA reporter change | stable assay Renilla, run 1 (luminescence) | stable assay firefly, run 1 (luminescence) | Call |
| --- | --- | --- | --- | --- | --- |
| CG13197 | DRSC06322 | – | 6046 | 3.81e5 | inactive |
| CG43902 | DRSC17999 | – | 5704 | 3.97e5 | inactive |
| exu | DRSC07615 | – | 9382 | 3.36e5 | inactive |
| CG10516 | DRSC09738 | – | 6642 | 3.03e5 | inactive |
| Dhdds | DRSC17756 | – | 6438 | 3.47e5 | inactive |
| lost | DRSC12002 | – | 5208 | 3.74e5 | inactive |
| lost | DRSC12234 | – | 4403 | 3.06e5 | inactive |
| lost | DRSC21987 | reporter ratio lowered past the hit cutoff | 9231 | 9.13e5 | inactive |
| Met | DRSC20284 | – | 5346 | 4.13e5 | inactive |
| Cyp317a1 | DRSC07366 | – | 5655 | 3.20e5 | inactive |
| CG4612 | DRSC04478 | – | 1.30e5 | 1.39e6 | inactive |
| Hat1 | DRSC12298 | – | 7367 | 3.42e5 | inactive |
| Lztr1 | DRSC18176 | – | 7659 | 3.96e5 | inactive |
| Lztr1 | DRSC18647 | – | 8120 | 4.18e5 | inactive |
| lok | DRSC03567 | – | 10438 | 1.95e6 | inactive |
| RpL18A | DRSC07538 | – | 6738 | 2.72e5 | inactive |
| CG6153 | DRSC02935 | – | 23195 | 8.09e5 | inactive |
| Mdh2 (retired record) | DRSC16361 | – | 6762 | 3.39e5 | inactive |
| Rbp9 | DRSC00416 | – | 7007 | 5.75e5 | inactive |
| Rbp9 | DRSC00779 | – | 15724 | 2.63e5 | inactive |
| galla-2 | DRSC10936 | – | 3767 | 5.01e5 | inactive |
| galla-2 | DRSC21949 | – | 8073 | 4.93e5 | inactive |
| CG30492 (retired record) + M7BP | DRSC05053 | – | 5523 | 4.27e5 | inactive |
| CG30492 (retired record) + M7BP | DRSC05054 | – | 5427 | 4.74e5 | inactive |
| CG30492 (retired record) + M7BP | DRSC05055 | – | 6812 | 5.49e5 | inactive |
| CG30492 (retired record) + M7BP | DRSC06701 | – | 5908 | 3.03e5 | inactive |
| CG30492 (retired record) + M7BP | DRSC06816 | – | 6500 | 3.44e5 | inactive |
| Tpst | DRSC18989 | reporter ratio lowered past the hit cutoff | 4179 | 5.58e5 | inactive |
| Tpst | DRSC19696 | – | 6888 | 5.55e5 | inactive |
| Tpst | DRSC19723 | – | 5023 | 4.41e5 | inactive |
| Tpst | DRSC19724 | – | 4414 | 3.81e5 | inactive |
| Tpst | DRSC22621 | – | 4163 | 4.26e5 | inactive |
